Positions count from the first letter of the chain named. These are yes or no findings as the source states them, for the method shown. Binding calls can cover weak binding; strength is not graded here.
B1: 2G04 (antibody, V domains shown)
VH: EVQLQQPGPELVKPGSSLKISCKASGYTFTDYFINWVKQRPGQGLDWIGWIFPGSGSTYYNDKFKGKATLTVDKSSSTAYMLLSSLTSEASAVYFCARWDSDSTYWYFDVWGTGTTVTVSS
VL: QIVLTQSPALMAASPGEKVTITCSVNSSISSSTLHWYQQKSQTSPKPWIYGTSNLASGVPIRFSGSGSGTSYSLTISSMEAEDAATYYCQQWSTYPYTFGGGTKLEIKR
B2: Kp1 2E08 (antibody, V domains shown)
VH: EVQLQQPGAELAKPGASVKLSCKASGYNFTSYWMHWVKQRPGQGLEWIGLIHPNSGGTYYNEKFKSKATLTLDRSSSTAYMQLSSLTSEDSAVYYCARFEEEWGGYWYFDVWGTGTTVTVSS
VL: B1 VL with N26S, T33N, Q42E, I61V, T94S
B3: Ec1 F7 (antibody, V domains shown)
VH: EVQLQQPGPVLVKPGPSVKISCKASGFTFTDYFIHWVKQSHGKSLEWIGLVSPYNGGTYYNQQFKGKATLTVDTSSSTAYMDLNSLTSEDSAVYYCTRLLRGYWYFDVWGTGTTVTVSS
VL: B1 VL with N26S, S30G, T33N, Q42E, I61V
B4: Kp1 1A02 (antibody, V domains shown)
VH: EVQLQQSGPVLVKPGPSMKISCKASGFTFTDYYIHWVRQSHGKSLEWIGLVSPYNGGTYYNQKFKGKATLTVDSSSSTAYMELSSLTSEDSAVYYCARLGYYGDWYYFDYWGQGTPLTVSS
VL: B1 VL with A13T, N26S, T33N, H35N, Q42E, I61V, T94S
B5: Kp2 2C07 (antibody, V domains shown)
VH: EVKLVESGEGLVKPGGSLKLSCAASGFTFSSYAMSWVRQTPEKRLDWVAYISSGGDHIYYADTVKGRFTISRDNARNTLYLQMSSLKSEDTAMYYCTRDTGYYVSRYFDVWGTGTTVTVSS
VL: DIVMTQSQKFMSTSVGDRVSVTCKASQNVVTNVAWYQQKSGQSPKVVIYSASFRSSGVPDRFTGSGSGTDFTLTISNVQSEDLAEYFCHQYNSHPLTFGGGTKLEIKR

Target: FimH tipping type 1 pili on E. coli UT189 bacteria (E. coli (UT189))
Test: bacterial cell ELISA on UT189

Row | Binder | binding
1 | B1 | binds
2 | B2 | binds
3 | B3 | binds
4 | B4 | binds
5 | B5 | binds

From patent US20250304662A1
